Measured data: PubChem BioAssay AID504808 (Drosophila RNAi Screening Center, 2011)
The screen tested about 21,000 reagents; shown is an unselected part of those with a known target gene and a result. Of all reagents, 18 (0.084%) got an active call. 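Raw counts without plate normalisation, one of two replicates; the ratio scores behind the calls were not deposited.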 The numbers tell different reagents against one gene apart. Reagent sequences are not shown. Not given: the amount of reagent, the time to read-out.

Test: 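Genes whose loss lifts activity of an E2F-responsive reporter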 (primary screen)
Cells: Drosophila S2 cells
Knock-down reagent: long dsRNA against Drosophila genes
Measurement: 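Firefly luciferase driven by E2F sites, normalised to Renilla luciferase on the same minimal promoter, measured by plate reader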
Direction: E2F firefly: higher = more E2F reporter activity; Renilla normaliser: higher = more normaliser reporter signal
Rule for the call: 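a knock-down counted as active when the firefly/Renilla E2F signal rose above 50%, a threshold chosen arbitrarily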

CG13314 → E2F firefly, rep 1: 1.04e5; Renilla normaliser, rep 1: 4451; Call: inactive
Mdr50 → E2F firefly, rep 1: 80852; Renilla normaliser, rep 1: 3835; Call: inactive
CG30487 → E2F firefly, rep 1: 1.30e5; Renilla normaliser, rep 1: 5331; Call: inactive
KFase → E2F firefly, rep 1: 1.61e5; Renilla normaliser, rep 1: 5431; Call: inactive
CG31624 → E2F firefly, rep 1: 83665; Renilla normaliser, rep 1: 3562; Call: inactive
CG4393 → E2F firefly, rep 1: 91087; Renilla normaliser, rep 1: 5029; Call: inactive
Lcp65Af → E2F firefly, rep 1: 1.03e5; Renilla normaliser, rep 1: 3863; Call: inactive
WRNexo → E2F firefly, rep 1: 71186; Renilla normaliser, rep 1: 3564; Call: inactive
Ifrd1 #1 → E2F firefly, rep 1: 1.47e5; Renilla normaliser, rep 1: 4887; Call: inactive
Ifrd1 #2 → E2F firefly, rep 1: 1.50e5; Renilla normaliser, rep 1: 4945; Call: inactive
Es2 → E2F firefly, rep 1: 7707; Renilla normaliser, rep 1: 748; Call: inactive

Limited to “E2F firefly, rep 1”, for 2 of the entries above:
KFase	1.61e5
CG31624	83665

Further reagents follow:
dpr17 #1 → E2F firefly, rep 1: 76108; Renilla normaliser, rep 1: 3219; Call: inactive
dpr17 #2 → E2F firefly, rep 1: 1.27e5; Renilla normaliser, rep 1: 5215; Call: inactive
dpr17 #3 → E2F firefly, rep 1: 1.48e5; Renilla normaliser, rep 1: 6880; Call: inactive
CG9577 → E2F firefly, rep 1: 1.45e5; Renilla normaliser, rep 1: 6412; Call: inactive
CG40053 (retired record) → E2F firefly, rep 1: 77670; Renilla normaliser, rep 1: 2615; Call: inactive
oc → E2F firefly, rep 1: 93471; Renilla normaliser, rep 1: 5536; Call: inactive
CG31709 → E2F firefly, rep 1: 1.49e5; Renilla normaliser, rep 1: 5200; Call: inactive
CG9316 → E2F firefly, rep 1: 1.02e5; Renilla normaliser, rep 1: 4452; Call: inactive
